For 38 molecules, neuronal differentiation score results are on record in the supplement of paper PMC4635364.

Counter-ions that a name gives are not always drawn. This is one part of the list. Single values are uncertain here, since repeats match poorly.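 ReNCell VM, a human fetal ventral-midbrain neural progenitor line, was differentiated without mitogens. Blinded raters scored images stained for doublecortin (early neurons) or tyrosine hydroxylase (dopaminergic neurons) against untreated wells (0 = no change). Scores were averaged across repeats and both raters, and compounds averaging 2 or more were selected as hits for retesting.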

For one experiment, the system named is ReNCell VM. The experiment can be described thus: neuronal differentiation score (DCX+ cell fraction vs untreated, manual image score) (score (-3 to 3)); higher = more neuronal differentiation. The following applies: library: LOPAC; 2 uM; 2 weeks.
Turning to `NCCC[C@](N)(C(=O)O)C(F)F` (racemic) [DL-alpha-Difluoromethylornithine hydrochloride], the neuronal differentiation score was inactive: 0.

In the case of `O=C(O)/C=C/c1ccc(O)c(O)c1` [Caffeic Acid], the neuronal differentiation score is inactive: 0. Regarding `O=C(O)C1=CC(=C(c2ccc(O)c(C(=O)O)c2)c2ccc(O)c(C(=O)O)c2)C=CC1=O` [Aurintricarboxylic acid], the neuronal differentiation score was inactive: 0. Consider `CC[N+](CC)(CC)CC(=O)Nc1c(C)cccc1C` [Lidocaine N-ethyl bromide quaternary salt], for which the neuronal differentiation score is inactive: 0. `CCc1cccc(N(C)C(=N)Nc2cccc3ccccc23)c1`: the neuronal differentiation score is inactive: -1.

The experiment is the same for the next values; noted with them: library: Prestwick; 2 uM; 2 weeks.
For the molecule `CCN(CC)CCOC(=O)C(Cc1cccc2ccccc12)CC1CCCO1` (stereo not drawn) [Nafronyl oxalate], the neuronal differentiation score is inactive: 0.

Take `Clc1ccc(C(Cn2ccnc2)OCc2ccsc2Cl)c(Cl)c1` (stereo not drawn) [Tioconazole]: the neuronal differentiation score was inactive: 0. The same measure, in the same setting: next, `CC1CNc2c(cccc2S(=O)(=O)N[C@@H](CCCNC(=N)N)C(=O)N2CC[C@@H](C)C[C@@H]2C(=O)O)C1` (stereo partly drawn) [Argatroban]: inactive: 0; `CCN(CC)CCc1nc(-c2ccccc2)no1` [Oxalamine citrate salt]: inactive: 0; `C1CCC(C(CC2CCCCN2)C2CCCCC2)CC1` (stereo not drawn) [Perhexiline maleate]: inactive: 0.

Still in this experiment, the particulars now being: library: Spectrum; 2 uM; 2 weeks.
`COc1ccc(-c2cc(=O)c3c(O)c(OC)c(O[C@@H]4O[C@H](CO[C@@H]5O[C@@H](C)[C@H](O)[C@@H](O)[C@H]5O)[C@@H](O)[C@H](O)[C@H]4O)cc3o2)cc1`: the neuronal differentiation score is inactive: 0. As to `C#C[C@]1(OC(C)=O)CC[C@H]2[C@@H]3CCC4=CC(=NO)CC[C@@H]4[C@H]3CC[C@@]21CC` (mixture of isomers), the neuronal differentiation score is inactive: 1. The same measure, in the same setting: to `C1N2CN3CN1CN(C2)C3` belongs inactive: 1. For `CC(=O)OC1CCC2(C)C(=CCC3C2CCC2(C)C(C(C)CCCC(C)C)CCC32)C1` (stereo not drawn), the neuronal differentiation score is inactive: 1. Still for that read-out and setting: to `CN(C)c1ccc(O)c2c1C[C@H]1C[C@H]3[C@H](N(C)C)C(O)=C(C(N)=O)C(=O)[C@@]3(O)C(O)=C1C2=O` belongs inactive: 0; to `O=C1CC[C@]23/C=C/C(=O)NCCCCNCCCNC(=O)/C=C/c4ccc(c2c4)O[C@@H]3C1`, inactive: 0. Take `CC(C)Cn1cnc2c(N)nc3ccccc3c21`: the neuronal differentiation score is inactive: 0. For `CC(C)=CCC[C@@H](C)[C@H]1CC[C@@]2(C)C3=C(CC[C@]12C)[C@@]1(C)CC[C@H](O)C(C)(C)[C@@H]1CC3`, the neuronal differentiation score is inactive: 1. `CCCCCCCCCCCCCCCCCCOCC(O)CO` (stereo not drawn): the neuronal differentiation score was inactive: 0. Take `C[C@H](CS)C(=O)N1CCC[C@H]1C(=O)O`: the neuronal differentiation score is inactive: 0. Consider `CC(C)CCC[C@@H](C)[C@H]1CC[C@H]2[C@@H]3CC=C4CC(=O)CC[C@]4(C)[C@H]3CC[C@]12C`, for which the neuronal differentiation score is inactive: 0.

With `Cc1cc(-c2ccc(/N=N/c3ccc4c(S(=O)(=O)O)cc(S(=O)(=O)O)c(N)c4c3O)c(C)c2)ccc1/N=N/c1ccc2c(S(=O)(=O)O)cc(S(=O)(=O)O)c(N)c2c1O`, the neuronal differentiation score was inactive: 1. On the same count and under the same terms, next, `CCCc1cc(C(N)=S)ccn1`: inactive: 0; `CC(=O)N[C@@H]([C@@H](O)[C@H](O)[C@H](O)CO)[C@@H](O)CC(=O)C(=O)O`: inactive: 0; `COc1ccc([C@@H]2CC(=O)c3c(O)cc(O)cc3O2)cc1O`: inactive: 0. The same measure, in the same setting: to `COC1(C)CCC2OC2(C)CCC2C1CC2(C)C` (stereo not drawn) belongs inactive: 0; to `CCc1cccc2c3c([nH]c12)C(CC)(CC(=O)O)OCC3` (stereo not drawn), inactive: 0. The same measure, in the same setting: to `C=C(C)[C@@H]1CC[C@]2(C(=O)O)CC[C@]3(C)[C@H](CC[C@@H]4[C@@]5(C)CC[C@H](O)C(C)(C)[C@@H]5CC[C@]43C)[C@@H]12` belongs inactive: 1; to `C[C@@H]1O[C@@H](O[C@H]2[C@H](Oc3cc(O)c4c(c3)O[C@H](c3ccc(O)cc3)CC4=O)O[C@H](CO)[C@@H](O)[C@@H]2O)[C@H](O)[C@H](O)[C@H]1O`, inactive: 0. For the molecule `CCCc1ncc(C[n+]2ccccc2C)c(N)n1`, the neuronal differentiation score was inactive: 0. As for `CO[C@H]1C[C@H](O[C@H]2[C@H](C)[C@@H](O[C@@H]3O[C@H](C)C[C@H](N(C)C)[C@H]3O)[C@@H](C)C[C@@]3(CO3)C(=O)[C@H](C)[C@@H](O)[C@@H](C)[C@@H](C)OC(=O)[C@@H]2C)O[C@@H](C)[C@@H]1O`, the neuronal differentiation score was inactive: 0.

Staying with this experiment, now noted: library: Tocriscreen; 2 uM; 2 weeks.
On to `Nc1ncnc2c1nc(Br)n2[C@@H]1O[C@@H]2COP(=O)(O)O[C@H]2[C@H]1O` [8-Bromo-cAMP, sodium salt], for which the neuronal differentiation score is inactive: 0. Regarding `N#C/C(=C\c1ccc(O)c(O)c1)C(=O)OCCc1cccs1`, the neuronal differentiation score is inactive: 0. Consider `O=c1cc(-c2ccccc2)oc2cc(O)c(O)c(O)c12` [Baicalein], for which the neuronal differentiation score is inactive: 0. Take `CN1CCN(C(=O)c2nc3ccc(Cl)cc3[nH]2)CC1`: the neuronal differentiation score is inactive: 0. On to `Cc1nnc(-c2ccc3occ(-c4ccc([S+](C)[O-])cc4)c3c2)o1` (stereo not drawn), for which the neuronal differentiation score was active: 3. The same measure, in the same setting: to `CCCCCCCC/C=C\CCCCCCCC(=O)NCCO` [Oleylethanolamide] belongs inactive: 0; to `Cc1cccc(Nc2cc(Cl)nc(SCC(=O)O)n2)c1C`, inactive: 0.
